These are yes or no findings as the source states them, for the method shown. Some results given as binding are weak or reduced against the parent protein; the word gives no strength. Sequences can lack the tags named with a protein.

Experiment [1] deals with T1, Fc-Siglec-15 fusion protein (Homo sapiens (Human)) (UniProt Q6ZMC9).
T1 sequence: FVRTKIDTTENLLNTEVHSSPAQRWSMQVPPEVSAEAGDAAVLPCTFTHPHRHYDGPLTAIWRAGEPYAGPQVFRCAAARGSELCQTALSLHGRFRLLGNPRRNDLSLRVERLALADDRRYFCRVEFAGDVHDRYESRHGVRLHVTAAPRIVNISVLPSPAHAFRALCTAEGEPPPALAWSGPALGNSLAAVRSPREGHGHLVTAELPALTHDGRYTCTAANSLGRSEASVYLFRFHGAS
Kind of experiment: SPR, Fc-Siglec-15 immobilized on the chip, antibody (cell supernatant or purified) flowed over it.

Experiment [2] deals with T1, Fc-Siglec-15 fusion protein (Homo sapiens (Human)). Kind of experiment: SPR, Fc-Siglec-15 immobilized, antibody injected. For orientation: SPR reads the build-up and loss of mass on a sensor chip optically.
The target is the same in experiment [3]. In words: SPR, Fc-Siglec-15 immobilized on the chip, purified antibody flowed over it.
Experiment [4] has the same target. Kind of experiment: SPR, Fc-Siglec-15 immobilized on the chip, antibody in cell supernatant flowed over it.

B1: chimeric 25E9 IgG2 (antibody, V domains shown)
VH: EIQLQQSGVELVRPGASVTLSCKASGYTFTDYDMHWVKQTPVHGLEWIGTIDPETGGTAYNQKFKGKATLTADRSSTTAYMELSSLTSEDSAVYYCTSFYYTYSNYDVGFAYWGQGTLVTVSA
VL: DIVMTQAAPSVPVTPGESVSISCRSTKSLLHSNGNTYLYWFLQRPGQSPQLLIYRMSNLASGVPDRFSGSGSGTAFTLRISRVEAEDVGVYYCMQHLEYPFTFGGGTKLEIKR
Regarding B1, the binding entry in experiment [1] and in experiment [2] was “binds” each time.

B2: mouse 25E9 monoclonal antibody (antibody, V domains shown)
VH: EIQLQQSGVELVRPGASVTLSCKASGYTFTDYDMHWVKQTPVHGLEWIGTIDPETGGTAYNQKFKGKATLTADRSSTTAYMELSSLTSEDSAVYYCTSFYYTYSNYDVGFAYWGQGTLVTVSA
VL: DIVMTQAAPSVPVTPGESVSISCRSTKSLLHSNGNTYLYWFLQRPGQSPQLLIYRMSNLASGVPDRFSGSGSGTAFTLRISRVEAEDVGVYYCMQHLEYPFTFGGGTKLEIK
As for B2, the binding result in experiment [2] and in experiment [3] was “binds” in each case.

B3: humanized 25E9 L1H1 IgG2 variant (antibody)
light: DIVMTQSPLSLPVTPGEPASISCRSTKSLLHSNGNTYLYWYLQKPGQSPQLLIYRMSNLASGVPDRFSGSGSGTDFTLKISRVEAEDVGVYYCMQHLEYPFTFGGGTKVEIKRTVAAPSVFIFPPSDEQLKSGTASVVCLLNNFYPREAKVQWKVDNALQSGNSQESVTEQDSKDSTYSLSSTLTLSKADYEKHKVYACEVTHQGLSSPVTKSFNRGEC
heavy: EIQLQQSGAEVKKPGSSVKVSCKASGYTFTDYDMHWVRQAPGQGLEWMGTIDPETGGTAYNQKFKGRVTITADKSTSTAYMELSSLRSEDTAVYYCTSFYYTYSNYDVGFAYWGQGTLVTVSSASTKGPSVFPLAPCSRSTSESTAALGCLVKDYFPEPVTVSWNSGALTSGVHTFPAVLQSSGLYSLSSVVTVPSSNFGTQTYTCNVDHKPSNTKVDKTVERKCCVECPPCPAPPVAGPSVFLFPPKPKDTLMISRTPEVTCVVVDVSHEDPEVQFNWYVDGVEVHNAKTKPREEQFNSTFRVVSVLTVVHQDWLNGKEYKCKVSNKGLPAPIEKTISKTKGQPREPQVYTLPPSREEMTKNQVSLTCLVKGFYPSDIAVEWESNGQPENNYKTTPPMLDSDGSFFLYSKLTVDKSRWQQGNVFSCSVMHEALHNHYTQKSLSLSPGK
As to B3, the binding result in experiment [2] and in experiment [4] was “binds” in each case.

B4: chimeric 25D8 IgG2 (antibody, V domains shown)
VH: QVQVQQPGAELVKPGASVKLSCKASGYTFTSYWMHWVKQRPGQGLEWIGLINPSNARTNYNEKFNTKATLTVDKSSSTAYMQLSSLTSEDSAVYYCARGGDGDYFDYWGQGTTLTVSS
VL: DIVMTQAAFSNPVTLGTSASISCRSSKSLLHSNGITYLYWYLQKPGQSPQLLIYQMSNLASGVPDRFSSSGSGTDFTLRISRVEAEDVGVYYCAQNLELPYTFGGGTKLEIKR
For B4, the binding entry in experiment [1] and in experiment [2] was “binds” each time.

B5: mouse 25D8 monoclonal antibody (antibody, V domains shown)
VH: QVQVQQPGAELVKPGASVKLSCKASGYTFTSYWMHWVKQRPGQGLEWIGLINPSNARTNYNEKFNTKATLTVDKSSSTAYMQLSSLTSEDSAVYYCARGGDGDYFDYWGQGTTLTVSS
VL: DIVMTQAAFSNPVTLGTSASISCRSSKSLLHSNGITYLYWYLQKPGQSPQLLIYQMSNLASGVPDRFSSSGSGTDFTLRISRVEAEDVGVYYCAQNLELPYTFGGGTKLEIK
Consider B5, for which the binding entry in experiment [2] and in experiment [3] was “binds” each time.

B6: humanized 25D8 IgG2 antibody (antibody, V domains shown)
VH: QVQLQQSGAEVKKPGSSVKVSCKASGYTFTSYWMHWVRQAPGQGLEWMGLINPSNARTNYNEKFNTRVTITADKSTSTAYMELSSLRSEDTAVYYCARGGDGDYFDYWGQGTTVTVSS
VL: DIVMTQTPLSLPVTPGEPASISCRSSKSLLHSNGITYLYWYLQKPGQSPQLLIYQMSNLASGVPDRFSGSGSGTDFTLKISRVEAEDVGVYYCAQNLELPYTFGGGTKVEIKR
On to B6, for which the binding result in experiment [2] and in experiment [4] was “binds” in each case.

The values are drawn from patent US20150139982A1.
